According to PubChem BioAssay AID540276 (National Center for Advancing Translational Sciences (NCATS), 2011):
About 5,400 (1.8%) of roughly 300,000 compounds were called active. This list was built around the results that the source calls inconclusive (neither active nor inactive); the mix of calls is not that of the screen. Calls come from the whole dose curve; tested in HEK293 cells. Potencies beside an inconclusive call are fits to weak or partial responses and may not hold up.

assay: qHTS for inhibitors of binding or entry into cells for Marburg Virus; conditions: Marburg virus pseudotyped entry inhibition, cell reporter; series mostly up to 37.8 µM
Potency is the fitted concentration of half-maximal effect.

Compound	Potency
O=C(CN1CCN(Cc2ccccc2)CC1)NCCc1ccccc1	inconclusive: 15.8 µM [inhibitor, partial curve, poor fit]
COCCCNC(=O)CSc1nc2cc3c(cc2c(=O)n1CCCC(=O)NCc1ccc(OC)cc1)OCO3	inactive
O=C(CN1CCN(C(=O)c2ccco2)CC1)Nc1ccccc1-c1ccccc1	inconclusive: 0.092 µM [inhibitor, full curve, poor fit]
Cc1ccc(-c2nn(-c3cccc(F)c3)cc2CNCCc2ccncc2)o1	inconclusive: 15.8 µM [inhibitor, partial curve, poor fit]
COc1ccc(CCNC(=O)CSc2ccc(-c3ccco3)nn2)cc1	inactive
CCOC(=O)C1(c2ccccc2)CCN(CC(O)c2ccc(NC(C)=O)cc2)CC1 (centres undefined)	inconclusive: 7.08 µM [inhibitor, partial curve, poor fit]
Cc1ccc(C(=O)c2cc([N+](=O)[O-])ccc2N2CCCCC2)cc1	inconclusive: 1.26 µM [inhibitor, full curve, poor fit]
CCOC(=O)c1c(NC(=O)c2cccs2)sc(C)c1CC	inconclusive: 29.1 µM [inhibitor, single point]
CCC(C)Cn1cnc2c(Sc3c([N+](=O)[O-])ncn3C)nc(N)nc21 (centres undefined)	inconclusive: 25.1 µM [inhibitor, single point]
Clc1cccc(Cl)c1/C=N/Nc1c(Cl)cncc1Cl	inconclusive: 1 µM [inhibitor, full curve, poor fit]
Cc1noc(C)c1C(=O)Nc1nc2ccccc2s1	inconclusive: 5.62 µM [activator, partial curve]
CCCc1nnc(NC(=O)c2cc(=O)c3cc(Cl)ccc3o2)s1	inconclusive: 3.16 µM [activator, single point]
CS(=O)(=O)N1CCc2cc(C(=O)N3CCN(c4ccccc4)CC3)ccc21	inconclusive: 0.316 µM [activator, partial curve, poor fit]
CCCOc1ccc(-c2nc(=S)[nH][nH]2)cc1	inconclusive: 2.31 µM [activator, partial curve, poor fit]
Cc1ccc(C)c(NC(=O)C(c2ccccc2)N2CCOCC2)c1 (centres undefined)	inconclusive: 10 µM [activator, partial curve, poor fit]
CC(=O)Nc1cccc(/C(C)=N/NS(=O)(=O)c2ccc(C)cc2)c1	inconclusive: 1.41 µM [inhibitor, partial curve, poor fit]
CCCS(=O)(=O)c1c(S(=O)(=O)CCC)c2c3ccccc3ccn2c1C(=O)OC	inconclusive: 29.1 µM [inhibitor, single point]
COCCn1c(SCC(=O)Nc2ccc(C(N)=O)cc2)nc2c([nH]c3ccccc32)c1=O	inactive
O=C(COC(=O)C1CC(=O)N(Cc2ccco2)C1)c1ccc(OC(=O)c2ccco2)cc1 (centres undefined)	inconclusive: 35.5 µM [activator, single point]
Cc1ccccc1N=C1NN=C(c2ccccc2F)CS1	active: 14.6 µM
Cc1ccc(C=C2C(Cl)=C(Cl)C(Cl)=C2Cl)cc1	inactive
CC(C(=O)Nc1ccc2c(c1)OCCO2)N(C)Cc1c(F)cccc1Cl (centres undefined)	inconclusive: 14.1 µM [inhibitor, partial curve, poor fit]

Reprinted at random: two compounds from above
Compound	Potency
CCOC(=O)C1(c2ccccc2)CCN(CC(O)c2ccc(NC(C)=O)cc2)CC1 (centres undefined)	inconclusive: 7.08 µM [inhibitor, partial curve, poor fit]
CCCc1nnc(NC(=O)c2cc(=O)c3cc(Cl)ccc3o2)s1	inconclusive: 3.16 µM [activator, single point]

(next part)

Compound	Potency
CCC(Oc1ccccc1OC)C(=O)Nc1ccc2c(c1)OCCO2 (centres undefined)	inactive
Cc1ccc(C(C)NC(=O)c2cccs2)cc1 (centres undefined)	inconclusive: 3.98 µM [inhibitor, single point]
CCOC(=O)C1=C(CS(=O)(=O)c2ccccc2)NC(=O)NC1c1ccccc1OC (centres undefined)	inconclusive: 35.5 µM [inhibitor, partial curve, poor fit]
COc1ccc2c(c1)c1nc3ccccc3nc1n2CC(=O)OC(C)C	inconclusive: 1.3 µM [activator, partial curve, poor fit]
Cc1noc(C)c1COC(=O)c1cccc(S(=O)(=O)N2c3ccccc3CC2C)c1 (centres undefined)	inconclusive: 35.5 µM [inhibitor, single point]
CC1CCN(C(=O)c2ccc(N3C(=O)c4ccccc4C3=O)cc2)CC1	inconclusive: 5.62 µM [inhibitor, single point]
COCCCn1c(-c2ccsc2)nc2c1c(=O)[nH]c(=O)n2Cc1ccccc1	inconclusive: 29.1 µM [inhibitor, single point]
COc1ccccc1NS(=O)(=O)c1cc(C(=O)NCc2cccnc2)ccc1C	inconclusive: 0.0891 µM [activator, full curve, poor fit]
CCc1nnc(NC(=O)CSc2nnc(C3CC3)n2C)s1	inactive
CCC(=O)NC(c1ccc(C)cc1)c1cc([N+](=O)[O-])c2cccnc2c1O (centres undefined)	inconclusive: 4.47 µM [inhibitor, partial curve, poor fit]
COc1ccc(C(=O)/C=C2/c3ccccc3CC(C)(C)N2C)cc1	inconclusive: 3.26 µM [inhibitor, full curve, poor fit]
CCCCSc1oc(-c2ccco2)nc1S(=O)(=O)c1ccccc1	inconclusive: 17.8 µM [inhibitor, single point]
Cc1ccc(C2C(C#N)=C(N)SC(N)=C2C#N)cc1	inactive
Cc1ccc(C)c(NC(=O)CN(C)C(=O)CCN2C(=O)c3ccccc3C2=O)c1	inconclusive: 0.1 µM [activator, full curve, poor fit]
COc1cc(C2SCC(=O)N2CCN2CCCCC2)ccc1O (centres undefined)	inactive
O=C(NCCN1CCCCC1)c1ccc2c(c1)OCCO2	inconclusive: 35.5 µM [activator, single point]
Cc1nc2scc(C)n2c(=O)c1S(=O)(=O)N1CCN(c2cccc(C(F)(F)F)c2)CC1	inconclusive: 15.8 µM [inhibitor, single point]
Cc1nc([N+](=O)[O-])nn1C12CC3CC(CC(Cl)(C3)C1)C2	inconclusive: 3.55 µM [inhibitor, single point]
Cc1cc(C)c(O)c(-c2cc(C(=O)Nc3cccnc3)[nH]n2)c1	inconclusive: 29.1 µM [inhibitor, single point]
Cc1ccc(S(=O)(=O)N2CCCC2C(=O)Nc2cc(C)on2)cc1 (centres undefined)	inactive
Cc1ccc(C)c(NC(=S)NC2CC3CCCC(C2)N3CC(C)C)c1 (centres undefined)	inconclusive: 25.9 µM [inhibitor, single point]
COC(=O)c1c(C)[nH]c(C(=O)/C=C/c2ccccc2)c1C	inconclusive: 11.2 µM [inhibitor, single point]

Nothing new here: an excerpt of the list.
Compound	Potency
Cc1ccc(C2C(C#N)=C(N)SC(N)=C2C#N)cc1	inactive
Cc1ccc(C)c(NC(=O)CN(C)C(=O)CCN2C(=O)c3ccccc3C2=O)c1	inconclusive: 0.1 µM [activator, full curve, poor fit]

Further compounds.

Compound	Potency
O=C(NCCOc1ccccc1F)c1cc(F)c(F)cc1Cl	inconclusive: 9.2 µM [inhibitor, partial curve, poor fit]
OCCCNc1cc(-c2ccccc2)nc2cc(-c3ccc(F)cc3)nn12	inconclusive: 20 µM [inhibitor, partial curve, poor fit]
COC(=O)CNc1nc(Cl)nc(Nc2ccc(C)cc2)n1	inconclusive: 6.31 µM [inhibitor, single point]
COc1ccc(NC(=O)[C@H](NC(=O)[C@@H]2Cc3ccccc3CN2)c2ccccc2)cc1	inconclusive: 35.5 µM [inhibitor, single point]
COCCN(C(=O)C(C)C)c1nnc(-c2ccc(C)cc2)s1	inconclusive: 14.6 µM [inhibitor, single point]
COc1ccc(NC(=O)CN2CCC(Cc3ccccc3)CC2)cc1S(=O)(=O)N1CCOCC1	inconclusive: 35.5 µM [inhibitor, single point]
Cc1sc(N2CCN(S(=O)(=O)c3ccc4c(c3)NC(=O)CO4)CC2)nc1-c1ccccc1	inconclusive: 10 µM [inhibitor, single point]
CCN1C/C(=C\c2cc(OC)c(OC)c(OC)c2)C2=NN(c3ccccc3)C(c3cc(OC)c(OC)c(OC)c3)C2C1 (centres undefined)	inactive
CCCCNC(=O)c1ccccc1NC(=O)c1ccccc1N(C)S(C)(=O)=O	inconclusive: 29.1 µM [activator, partial curve, poor fit]
O=C(C1CCCN(S(=O)(=O)c2cccc3nsnc23)C1)N1CCN(c2ccccc2Cl)CC1 (centres undefined)	active: 3.98 µM
COC(=O)c1ccc(/C=N/OCC(=O)NCc2ccc(F)cc2)cc1	inactive
CCOc1cccc(OCCCOc2ccccc2)c1	inconclusive: 5.62 µM [inhibitor, single point]
O=[N+]([O-])c1ccc(/C=C/c2ccc3ccccc3n2)cc1	inconclusive: 5.01 µM [inhibitor, full curve, poor fit]
Cc1ccc(OCCNS(=O)(=O)c2cccs2)cc1	inconclusive: 0.0046 µM [inhibitor, full curve, poor fit]
COc1cc(-c2nnc(SCC3(c4ccc(Br)cc4)OCCO3)o2)cc(OC)c1OC	inconclusive: 35.5 µM [inhibitor, single point]
Cc1ccc(-c2nnc3c4ccccc4c(C)nn23)cc1NC(=O)c1ccccc1Cl	inactive
CCOC(=O)c1c(C)c(P(=S)(N2CCOCC2)N2CCOCC2)n(C)c1C	inconclusive: 3.16 µM [inhibitor, single point]
CCC(=O)N1CCc2cc(S(=O)(=O)NC(Cc3ccccc3)C(=O)Nc3cccc(OC)c3)ccc21 (centres undefined)	inactive
CCOCCCN(C(=O)Cn1nnc2ccccc21)C(C(=O)NCc1ccco1)c1ccncc1 (centres undefined)	inconclusive: 0.562 µM [activator, full curve, poor fit]
C/C=C(\C)c1nnc(NC(=O)C(C)C)s1	inconclusive: 17.8 µM [inhibitor, partial curve, poor fit]
